No constants are given. Whether binding was seen depends on the method and setting. Binding seen in cells or lysates may run through a third protein. These calls come from enrichment with a bait or labelling near it, and not all partners need be listed.

The chains behind the UniProt entries cited, without tags or fusion partners.
UniProt Q92731: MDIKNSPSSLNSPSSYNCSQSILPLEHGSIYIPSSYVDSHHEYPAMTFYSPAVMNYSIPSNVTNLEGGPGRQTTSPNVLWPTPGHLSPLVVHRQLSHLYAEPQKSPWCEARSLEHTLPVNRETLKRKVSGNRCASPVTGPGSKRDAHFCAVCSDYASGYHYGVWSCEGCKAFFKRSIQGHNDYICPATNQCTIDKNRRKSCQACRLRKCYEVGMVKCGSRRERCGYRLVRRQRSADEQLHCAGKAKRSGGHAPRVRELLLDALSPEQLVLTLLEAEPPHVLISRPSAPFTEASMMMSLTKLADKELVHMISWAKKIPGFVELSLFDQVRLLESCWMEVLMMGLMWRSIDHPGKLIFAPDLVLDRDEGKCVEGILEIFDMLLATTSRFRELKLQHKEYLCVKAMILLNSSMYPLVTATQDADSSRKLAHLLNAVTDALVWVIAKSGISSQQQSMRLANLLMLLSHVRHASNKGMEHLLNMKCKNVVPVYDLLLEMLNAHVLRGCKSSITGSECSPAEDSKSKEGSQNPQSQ
UniProt Q9H765: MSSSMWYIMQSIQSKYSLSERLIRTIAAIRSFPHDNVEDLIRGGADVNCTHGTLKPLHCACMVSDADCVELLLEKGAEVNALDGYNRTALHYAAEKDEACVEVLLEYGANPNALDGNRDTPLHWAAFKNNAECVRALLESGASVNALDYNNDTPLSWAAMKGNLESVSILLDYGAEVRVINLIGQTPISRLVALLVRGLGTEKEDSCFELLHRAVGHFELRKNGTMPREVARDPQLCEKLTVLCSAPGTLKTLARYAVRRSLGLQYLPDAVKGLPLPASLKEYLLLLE
UniProt O95714: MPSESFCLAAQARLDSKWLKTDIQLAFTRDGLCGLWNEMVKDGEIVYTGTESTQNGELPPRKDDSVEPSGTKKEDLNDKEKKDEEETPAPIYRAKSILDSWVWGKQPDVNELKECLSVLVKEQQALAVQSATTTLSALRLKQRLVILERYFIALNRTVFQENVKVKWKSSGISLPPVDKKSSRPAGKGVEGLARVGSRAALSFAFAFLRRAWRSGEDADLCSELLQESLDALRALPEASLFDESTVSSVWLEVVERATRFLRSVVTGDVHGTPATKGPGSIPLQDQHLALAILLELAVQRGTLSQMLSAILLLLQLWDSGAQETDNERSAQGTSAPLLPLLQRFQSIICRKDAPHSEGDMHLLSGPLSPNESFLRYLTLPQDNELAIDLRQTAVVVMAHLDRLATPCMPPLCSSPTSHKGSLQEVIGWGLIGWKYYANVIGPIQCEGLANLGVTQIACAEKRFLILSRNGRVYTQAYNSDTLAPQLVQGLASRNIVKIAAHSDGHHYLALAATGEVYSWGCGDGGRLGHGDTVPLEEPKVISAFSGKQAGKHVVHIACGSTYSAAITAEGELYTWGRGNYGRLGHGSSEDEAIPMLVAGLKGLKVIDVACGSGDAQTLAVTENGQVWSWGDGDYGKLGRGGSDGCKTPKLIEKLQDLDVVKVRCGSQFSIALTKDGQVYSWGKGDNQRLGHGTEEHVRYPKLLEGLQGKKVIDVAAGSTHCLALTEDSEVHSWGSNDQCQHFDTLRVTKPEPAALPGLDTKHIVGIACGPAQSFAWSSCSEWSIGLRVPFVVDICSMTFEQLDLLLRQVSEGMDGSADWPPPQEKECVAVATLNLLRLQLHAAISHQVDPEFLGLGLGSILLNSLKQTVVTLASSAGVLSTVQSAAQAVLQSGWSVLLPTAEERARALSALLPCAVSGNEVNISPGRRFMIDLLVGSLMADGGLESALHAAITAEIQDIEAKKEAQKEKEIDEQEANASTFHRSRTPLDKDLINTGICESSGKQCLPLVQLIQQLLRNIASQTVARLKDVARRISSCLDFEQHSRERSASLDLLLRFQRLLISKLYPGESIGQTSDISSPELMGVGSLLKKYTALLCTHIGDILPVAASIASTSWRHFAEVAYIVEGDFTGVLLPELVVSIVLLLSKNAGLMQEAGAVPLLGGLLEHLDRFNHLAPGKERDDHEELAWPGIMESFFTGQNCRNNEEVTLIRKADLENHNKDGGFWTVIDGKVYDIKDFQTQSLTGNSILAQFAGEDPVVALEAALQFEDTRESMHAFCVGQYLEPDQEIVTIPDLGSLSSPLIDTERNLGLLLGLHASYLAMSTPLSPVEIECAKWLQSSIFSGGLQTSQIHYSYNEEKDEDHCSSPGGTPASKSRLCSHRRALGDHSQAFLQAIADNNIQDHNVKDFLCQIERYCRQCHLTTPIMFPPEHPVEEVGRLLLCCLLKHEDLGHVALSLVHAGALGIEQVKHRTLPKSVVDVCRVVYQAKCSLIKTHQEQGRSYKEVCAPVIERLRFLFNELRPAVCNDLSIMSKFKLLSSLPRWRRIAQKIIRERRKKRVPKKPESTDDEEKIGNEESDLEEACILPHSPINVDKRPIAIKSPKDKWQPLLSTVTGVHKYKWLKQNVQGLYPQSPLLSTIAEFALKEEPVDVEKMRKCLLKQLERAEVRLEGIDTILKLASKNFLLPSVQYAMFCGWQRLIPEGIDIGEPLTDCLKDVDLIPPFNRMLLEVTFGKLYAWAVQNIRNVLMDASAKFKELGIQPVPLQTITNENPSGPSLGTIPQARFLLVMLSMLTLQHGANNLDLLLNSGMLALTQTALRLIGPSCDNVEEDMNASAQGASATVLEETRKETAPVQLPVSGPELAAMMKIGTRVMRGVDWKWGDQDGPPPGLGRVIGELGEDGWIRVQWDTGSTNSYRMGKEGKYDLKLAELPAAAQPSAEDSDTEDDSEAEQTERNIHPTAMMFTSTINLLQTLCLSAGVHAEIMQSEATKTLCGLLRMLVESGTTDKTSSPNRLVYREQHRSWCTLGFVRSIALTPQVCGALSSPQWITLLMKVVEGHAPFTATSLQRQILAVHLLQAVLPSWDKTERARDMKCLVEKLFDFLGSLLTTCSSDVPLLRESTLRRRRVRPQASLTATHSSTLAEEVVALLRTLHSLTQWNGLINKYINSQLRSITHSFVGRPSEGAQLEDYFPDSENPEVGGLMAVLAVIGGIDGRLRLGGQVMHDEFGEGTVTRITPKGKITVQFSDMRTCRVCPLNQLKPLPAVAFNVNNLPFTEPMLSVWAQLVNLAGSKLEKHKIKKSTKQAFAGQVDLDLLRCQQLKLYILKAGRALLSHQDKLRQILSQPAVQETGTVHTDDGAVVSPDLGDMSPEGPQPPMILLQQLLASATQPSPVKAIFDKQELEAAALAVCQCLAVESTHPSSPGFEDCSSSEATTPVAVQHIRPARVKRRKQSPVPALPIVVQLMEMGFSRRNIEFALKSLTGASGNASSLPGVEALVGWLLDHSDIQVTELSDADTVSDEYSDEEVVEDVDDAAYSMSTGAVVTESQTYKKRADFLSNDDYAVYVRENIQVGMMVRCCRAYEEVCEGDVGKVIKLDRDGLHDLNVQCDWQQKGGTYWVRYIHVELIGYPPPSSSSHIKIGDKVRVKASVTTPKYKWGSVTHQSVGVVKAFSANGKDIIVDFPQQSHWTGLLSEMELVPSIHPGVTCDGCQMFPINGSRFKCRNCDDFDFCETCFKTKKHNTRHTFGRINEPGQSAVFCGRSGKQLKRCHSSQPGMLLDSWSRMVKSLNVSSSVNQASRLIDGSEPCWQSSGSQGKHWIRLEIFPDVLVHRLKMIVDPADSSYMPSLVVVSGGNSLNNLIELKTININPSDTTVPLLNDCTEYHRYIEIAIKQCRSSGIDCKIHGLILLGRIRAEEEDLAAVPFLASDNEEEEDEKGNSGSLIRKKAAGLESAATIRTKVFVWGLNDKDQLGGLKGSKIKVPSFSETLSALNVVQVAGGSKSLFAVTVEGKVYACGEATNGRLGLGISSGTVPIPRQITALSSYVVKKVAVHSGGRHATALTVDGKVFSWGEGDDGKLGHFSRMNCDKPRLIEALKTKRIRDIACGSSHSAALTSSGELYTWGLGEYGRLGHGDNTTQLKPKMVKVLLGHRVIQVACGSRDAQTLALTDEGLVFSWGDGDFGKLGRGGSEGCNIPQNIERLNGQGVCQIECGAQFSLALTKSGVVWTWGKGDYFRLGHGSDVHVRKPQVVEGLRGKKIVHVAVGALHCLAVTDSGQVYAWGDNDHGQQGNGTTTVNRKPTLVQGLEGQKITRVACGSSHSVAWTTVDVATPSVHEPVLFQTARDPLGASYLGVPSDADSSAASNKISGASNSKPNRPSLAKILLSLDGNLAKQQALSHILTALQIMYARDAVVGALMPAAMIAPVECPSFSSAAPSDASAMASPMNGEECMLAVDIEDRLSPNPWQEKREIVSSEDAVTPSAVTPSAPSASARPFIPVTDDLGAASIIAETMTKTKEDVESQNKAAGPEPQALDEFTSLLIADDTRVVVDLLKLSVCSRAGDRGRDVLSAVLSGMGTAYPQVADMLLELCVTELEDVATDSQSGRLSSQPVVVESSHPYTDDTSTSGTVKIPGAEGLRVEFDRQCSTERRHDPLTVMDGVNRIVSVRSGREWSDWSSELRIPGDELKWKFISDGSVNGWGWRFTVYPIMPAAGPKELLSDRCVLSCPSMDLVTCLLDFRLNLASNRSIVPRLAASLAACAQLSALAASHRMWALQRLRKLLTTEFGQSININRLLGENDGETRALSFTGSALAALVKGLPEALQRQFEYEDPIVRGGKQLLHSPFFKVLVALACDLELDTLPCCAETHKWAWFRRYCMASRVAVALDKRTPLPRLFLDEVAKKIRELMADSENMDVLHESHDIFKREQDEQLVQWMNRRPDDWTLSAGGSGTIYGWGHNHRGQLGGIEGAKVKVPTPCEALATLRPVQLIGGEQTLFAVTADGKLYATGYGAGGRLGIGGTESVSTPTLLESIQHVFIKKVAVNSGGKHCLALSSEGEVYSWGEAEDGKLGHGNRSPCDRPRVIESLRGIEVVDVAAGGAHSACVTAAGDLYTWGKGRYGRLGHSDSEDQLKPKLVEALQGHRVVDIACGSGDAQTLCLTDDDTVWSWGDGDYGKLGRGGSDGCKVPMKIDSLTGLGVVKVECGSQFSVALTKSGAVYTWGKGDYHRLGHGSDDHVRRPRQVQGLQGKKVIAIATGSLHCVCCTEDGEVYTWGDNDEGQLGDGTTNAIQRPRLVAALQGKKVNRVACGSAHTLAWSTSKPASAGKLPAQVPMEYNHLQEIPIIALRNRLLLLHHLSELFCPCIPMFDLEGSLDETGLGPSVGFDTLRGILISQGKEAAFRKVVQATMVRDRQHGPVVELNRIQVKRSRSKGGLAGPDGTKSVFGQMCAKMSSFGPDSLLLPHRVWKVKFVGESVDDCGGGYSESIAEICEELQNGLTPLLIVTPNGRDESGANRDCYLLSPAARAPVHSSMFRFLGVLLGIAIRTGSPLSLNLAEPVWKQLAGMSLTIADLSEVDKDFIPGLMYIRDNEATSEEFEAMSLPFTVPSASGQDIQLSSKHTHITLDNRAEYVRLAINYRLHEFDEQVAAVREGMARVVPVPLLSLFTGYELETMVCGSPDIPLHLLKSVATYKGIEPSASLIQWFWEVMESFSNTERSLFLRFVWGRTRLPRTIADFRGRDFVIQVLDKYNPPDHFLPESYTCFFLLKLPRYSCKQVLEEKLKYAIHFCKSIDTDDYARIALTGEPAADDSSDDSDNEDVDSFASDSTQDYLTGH

This note sets out measurements from PMC12311189.

The target of the assay is Flag-ERβ (estrogen receptor beta, from Flag-ESR2 plasmid) (UniProt Q92731). Briefly: affinity purification with mass spectrometry; LC-MS/MS analysis of HEK293T cells transfected with Flag-ESR2 plasmids; Flag-ERβ as bait.

As to “ASB8, endogenous (from UniProt Q9H765 1-288)”, the binding entry was “binds”.

For the substance “HERC2, endogenous (from UniProt O95714 1-4834)”, the binding entry was “binds”.
